Values as published with doi:10.1371/journal.pone.0140310, rounded.

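Human melanoma cells were exposed to a pair of drugs for 72 h in 1,536-well plates and read by automated microscopy after fixing and staining. The read-out is the fraction of cleaved-PARP-positive nuclei, in % of that fraction in the DMSO control; 200 means twice the control level of this apoptosis marker. Concentrations were fixed for each drug; these are the higher of two levels. The file gives one value for each pair and line, without errors, so small differences may be noise. Basal and induced levels differ widely between cell lines.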
Only some of the drugs and lines screened are listed, without regard to their results.

All values are for the listed drug together with indole-3-carbinol (4 µM): OCc1c[nH]c2ccccc12

Second drug,UACC-257
O=C(O)C(=O)Nc1sc2c(c1C(=O)O)CCNC2 at 8.33 µM,31.3
COCC[n+]1c2c(n(Cc3cnccn3)c1C)C(=O)c1ccccc1C2=O at 0.002 µM,1560
O=C(Nc1ccccc1)c1cc([N+](=O)[O-])ccc1Cl at 10 µM,17.1
CC(=O)O[C@@]12CO[C@@H]1C[C@H](O)[C@@]1(C)C(=O)[C@H](O)C3=C(C)[C@@H](OC(=O)[C@H](O)[C@@H](NC(=O)OC(C)(C)C)c4ccccc4)C[C@@](O)([C@@H](OC(=O)c4ccccc4)[C@H]21)C3(C)C at 0.0005 µM,116
N#Cc1c(O)c2c(-c3ccc(-c4ccccc4O)cc3)csc2[nH]c1=O at 10 µM,30.8
C[C@]1(c2nc3c(C(N)=O)cccc3[nH]2)CCCN1 at 7 µM,40.5
COc1ccc(C2=N[C@@H](c3ccc(Cl)cc3)[C@@H](c3ccc(Cl)cc3)N2C(=O)N2CCNC(=O)C2)c(OC(C)C)c1 at 0.5 µM,88.5
Cc1nc(Nc2ncc(C(=O)Nc3c(C)cccc3Cl)s2)cc(N2CCN(CCO)CC2)n1 at 0.02 µM,48.9
Cc1cc([N+](=O)[O-])ccc1NS(=O)(=O)c1cc(Cl)ccc1Cl at 5 µM,88.6
C[C@@H]1CCN(C(=O)CC#N)C[C@@H]1N(C)c1ncnc2[nH]ccc12 at 5 µM,62.1
O=C(Nc1cccc(Cl)c1)Nc1ncc(CCNc2ncnc3ccsc23)s1 at 0.004 µM,35.5
CN(NC(=O)CC(=O)NN(C)C(=S)c1ccccc1)C(=S)c1ccccc1 at 0.03 µM,275
C[C@@H](Oc1cc(-c2cnn(C3CCNCC3)c2)cnc1N)c1c(Cl)ccc(F)c1Cl at 1 µM,165
COc1ccc(-c2ccc3c(N4CCOCC4)nc(N4C[C@@H](C)O[C@@H](C)C4)nc3n2)cc1CO at 0.1 µM,60.2
Cn1c(Nc2ccc(C(F)(F)F)cc2)nc2cc(Oc3ccnc(-c4ncc(C(F)(F)F)[nH]4)c3)ccc21 at 0.4 µM,91.8
CCCCCCCCc1ccc(CCC(N)(CO)CO)cc1 at 10 µM,245
COc1ccc(COc2ccc(Cc3cnc(N)nc3N)cc2OC)cc1 at 5 µM,70.2
C=CCn1c(=O)c2cnc(Nc3ccc(N4CCN(C)CC4)cc3)nc2n1-c1cccc(C(C)(C)O)n1 at 0.1 µM,74.6
Cc1ccc(Nc2nccc(N(C)c3ccc4c(C)n(C)nc4c3)n2)cc1S(N)(=O)=O at 2 µM,36.8
Cn1cncc1[C@@](N)(c1ccc(Cl)cc1)c1ccc2c(c1)c(-c1cccc(Cl)c1)cc(=O)n2C at 0.05 µM,32.4
Cn1cc(C2=C(c3cn(C4CCN(Cc5ccccn5)CC4)c4ccccc34)C(=O)NC2=O)c2ccccc21 at 4 µM,117
CC(C)(C)c1cnc(CSc2cnc(NC(=O)C3CCNCC3)s2)o1 at 0.05 µM,67.7
CO[C@H]1C[C@@H]2CC[C@@H](C)[C@@](O)(O2)C(=O)C(=O)N2CCCC[C@H]2C(=O)O[C@H]([C@H](C)C[C@@H]2CC[C@@H](OCCO)[C@H](OC)C2)CC(=O)[C@H](C)/C=C(\C)[C@@H](O)[C@@H](OC)C(=O)[C@H](C)C[C@H](C)/C=C/C=C/C=C/1C at 0.1 µM,24.0
Nc1cccc2c1CN(C1CCC(=O)NC1=O)C2=O (stereo unspecified) at 5 µM,60.6
CC1(C)NC(=O)N(c2ccc([N+](=O)[O-])c(C(F)(F)F)c2)C1=O at 5 µM,58.3
O=C(/C=C/c1cccnc1)NCCCCC1CCN(C(=O)c2ccccc2)CC1 at 0.05 µM,77.5

The last 2 entries again:

Second drug,UACC-257
CC1(C)NC(=O)N(c2ccc([N+](=O)[O-])c(C(F)(F)F)c2)C1=O at 5 µM,58.3
O=C(/C=C/c1cccnc1)NCCCCC1CCN(C(=O)c2ccccc2)CC1 at 0.05 µM,77.5